# Library screening results

Sequences of proteins named here, by UniProt entry; tags and fusion partners are left off.
UniProt E9BF75, entry or part of it: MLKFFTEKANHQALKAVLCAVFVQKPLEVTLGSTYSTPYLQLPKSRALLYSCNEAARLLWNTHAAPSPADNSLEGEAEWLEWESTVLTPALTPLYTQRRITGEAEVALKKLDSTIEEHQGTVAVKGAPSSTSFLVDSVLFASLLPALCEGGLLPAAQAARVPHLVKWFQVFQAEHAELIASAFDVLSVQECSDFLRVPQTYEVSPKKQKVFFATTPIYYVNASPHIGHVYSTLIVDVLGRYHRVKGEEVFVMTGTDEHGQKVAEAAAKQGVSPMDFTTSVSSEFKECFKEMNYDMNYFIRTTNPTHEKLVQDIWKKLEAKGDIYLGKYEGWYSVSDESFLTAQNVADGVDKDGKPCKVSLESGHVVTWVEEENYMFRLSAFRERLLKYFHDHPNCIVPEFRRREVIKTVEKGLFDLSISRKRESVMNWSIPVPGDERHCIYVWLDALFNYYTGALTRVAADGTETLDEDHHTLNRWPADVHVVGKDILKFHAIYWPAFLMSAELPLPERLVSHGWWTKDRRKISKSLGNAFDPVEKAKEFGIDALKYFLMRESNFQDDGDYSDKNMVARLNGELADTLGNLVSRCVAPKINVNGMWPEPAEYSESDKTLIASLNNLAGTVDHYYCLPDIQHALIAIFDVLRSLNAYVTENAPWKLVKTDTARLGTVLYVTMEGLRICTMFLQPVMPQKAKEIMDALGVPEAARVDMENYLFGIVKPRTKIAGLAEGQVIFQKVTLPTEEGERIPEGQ

The values are deposited in ChEMBL (CHEMBL3988442, “University of Dundee, Small-Polar-MMV Screening Library” (2021)).

A: 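Assay on Mycobacterium tuberculosis, filed only as a heat shock assay from Cornell; the read-out is not stated. The concentration is filed as 10 mM, unlikely as a test dose, so the dose is not known. Direction is inferred from retests: higher values go with stronger inhibition. Of about 69,000 compounds tested this way, about 930 (1.4%) reached 50% or more in at least one test.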
B: 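Methionyl-tRNA synthetase (putative), Leishmania donovani (UniProt E9BF75). Primary screen of methionyl-tRNA synthetase; the read-out is not stated. The test concentration is not given. The values are filed as inhibition. About 68,000 compounds were tested under these conditions; 0.035% (about 24) showed 50% or more at least once.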
C: 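Whole-cell assay for inhibitors of Mycobacterium tuberculosis growth, labelled Cornell in the record; the read-out is not stated. The concentration is filed as 10 mM, unlikely as a test dose, so the dose is not known. The record gives no direction; compounds strong in two other growth screens of this library score well above the rest, so higher reads as stronger inhibition. Of about 53,000 compounds tested this way, about 900 (1.7%) reached 50% or more in at least one test.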

Results are percentages, as filed.
The controls that fix the scale are not given in the record; negative values are as filed.
This is an unselected part of the compounds tested.
A dash means the value is not listed here; it may have been measured.

| # | SMILES | A | B | C |
|---|---|---|---|---|
| 1 | `CCOC(=O)N1CCNC(c2cccs2)C1` (centres undefined) | -13.46 | -1.078 | -4.593 |
| 2 | `CCn1nc(CC(C)C)cc1C(=O)NCCS(=O)(=O)N(C)C` | 10.1 | 9.014 | -12.77 |
| 3 | `CO[C@H]1CNC[C@@H]1NC(=O)c1cc(C)nc2c(C)c(C)ccc12` | -4.929 | 11.02 | 7.274 |
| 4 | `Cc1cccc(CN2C(=O)CCC23CCN(C(=O)NC(C)C)CC3)n1.O=C(O)C(F)(F)F` | -12.18 | - | 1.446 |
| 5 | `CC(C)N1CCN(C)CC(Cc2cc(N(C)C)ncn2)C1` (centres undefined) | -6.923 | 20 | 4.324 |
| 6 | `Cc1nc(C)c(C(=O)NCCNc2ncccc2C#N)s1` | 13.94 | 12.2 | 7.006 |
| 7 | `N#Cc1cccc(C(=O)N2CCC3(CCC(=O)N(C4CC4)C3)CC2)c1` | -35.55 | 6.977 | -3.094 |
| 8 | `Cc1ccsc1C(=O)Nc1ccc(N2CCC(O)CC2)c(C#N)c1` | 75.65 | 22.28 | 11.35 |
| 9 | `Cc1cc(CN(C)C2CCCN(Cc3noc(C4CC4)n3)C2)on1` (centres undefined) | -9.716 | 12.57 | 2.145 |
| 10 | `CN(C)C(=O)NC[C@@H]1OC[C@H]2CN(Cc3cccc(F)c3)CC[C@H]21` | - | 6.015 | - |
| 11 | `CS(=O)(=O)Nc1ccc2c(c1)NC(=O)CC2c1cnn2cccnc12` (centres undefined) | -4.684 | 2.687 | -22.84 |
| 12 | `O=C1N(c2cccc(F)c2)Cc2nc(=O)n(Cc3ccc(Cl)cc3)n21` | 10.84 | 12.14 | 13.55 |
| 13 | `CN(C)CCO[C@H]1CN(C(=O)c2cscn2)[C@@H]2COC[C@H]12` | - | 7.19 | - |
| 14 | `CCNC(=O)[C@@H]1C[C@H](NC(=O)c2ccccc2C#N)CN1CCCSC` | -8.847 | 17.5 | 42.81 |
| 15 | `Cc1ccc(CN2CCCC3(COCCN(Cc4c[nH]nn4)C3)C2)o1.O=C(O)C(F)(F)F.O=C(O)C(F)(F)F` (centres undefined) | 8.409 | - | 25.64 |
| 16 | `O=C(Cc1ccc2c(c1)CCC2)N1CCCC(n2cccn2)C1` (centres undefined) | 11.21 | 9.278 | 0.124 |
| 17 | `CCOC(=O)c1nc(CN2CCN(C(=O)NC3CCCCC3)CC2)cs1` | 14.02 | 12.63 | -7.146 |
| 18 | `N#Cc1ccccc1OCCN1CCCC1Cn1cccn1` (centres undefined) | 2.17 | 9.804 | 2.699 |
| 19 | `O=C(CCc1cccc(C2CCNCC2)n1)N1CCCCC1` | - | 12.6 | - |
| 20 | `Cc1c(C(C)NC(=O)N2CCN(C3CCCC3)CC2)cnn1C` (centres undefined) | -24.44 | 16.02 | - |
| 21 | `O=C1NCC[C@]12CN(Cc1ccoc1)C[C@H]2c1ccccc1` | -2.949 | 6.863 | -12.39 |
| 22 | `Cc1cc(C[C@@H]2COC[C@H]2NCc2ccccc2C(F)(F)F)on1.O=C(O)CC(O)(CC(=O)O)C(=O)O` | 3.544 | - | 1.712 |
| 23 | `CCC1=N[C@@]2(CC[C@@H]3CN(CC(C)C)C[C@@H]32)C(=O)N1` | - | -0.3484 | - |
| 24 | `CC(C)(CNCc1ccc(OCc2cscn2)cc1)C(N)=O.Cl` | -20.08 | - | -15.09 |
| 25 | `[H][C@@]12CCN(C[C@@H]1c1cc(-c3cccs3)nn1C)[C@@H](CNC(C)=O)C2` | -6.563 | - | -3.672 |
| 26 | `OCCCN1CCCC1c1cccc(Br)c1` (centres undefined) | 2.39 | 4.188 | 7.169 |
| 27 | `Cc1ccc(CN(C)C(=O)CN2CCCCC2Cn2cncn2)o1` (centres undefined) | 0.3498 | 9.783 | 26.94 |
| 28 | `CN1CCN(Cc2cccc(C#N)c2)Cc2cccnc21` | - | 13.33 | - |
| 29 | `COc1ccc(C2SCC(=O)Nc3n[nH]cc32)c(OC)c1OC` (centres undefined) | -25.27 | -7.932 | -14.08 |
| 30 | `Cc1nc2cc(C3CCCCN3C(=O)C3CC3)nn2c(O)c1C` (centres undefined) | 5.573 | 18.99 | 9.26 |
| 31 | `CCN(CC)c1ccc2ccc(C(=O)N(CCOC)CCOC)cn12` | - | 25.36 | - |
| 32 | `COCCCN1CCC(c2nc3c([nH]2)CC(C)(C)CNC3=O)C1` (centres undefined) | 12.16 | 7.116 | -11.27 |
| 33 | `Cc1nonc1CN(C)c1nc(-c2ccco2)nc2c1CCN(C)CC2` | -50.03 | 16.1 | 5.225 |
| 34 | `COc1ccc2c(c1)OCC(Cc1cc(C(=O)N3CCCC3)ccn1)C2` (centres undefined) | -7.31 | 11.76 | 3.952 |
| 35 | `Fc1ccc(CC2CCN(Cc3cscn3)CC2)cc1` | -7.126 | 7.94 | 12.52 |
| 36 | `COc1cccc(C(=O)N2C[C@@H](C(=O)O)[C@H](c3ccccc3C)C2)c1` | -21.29 | 0.7117 | - |
| 37 | `Cc1ccccc1N1CCCN(C(=O)CCc2ccncc2)CC1` | -7.99 | - | - |
| 38 | `CCN(C)C(C(=O)Nc1ccc2c(c1)CCC(=O)N2)c1ccccc1` (centres undefined) | 8.637 | 16.85 | - |
| 39 | `CN1CCO[C@@H]2CN(C(=O)COc3cccc(Cl)c3)C[C@@H]2C1` | - | 11.96 | - |
| 40 | `OC(CNC1CCOCC1)c1cccc(OCc2ccccc2)c1` (centres undefined) | 4.372 | 12.9 | 16.58 |
| 41 | `Cc1nc(NC(=O)OC(C)(C)C)sc1C(N)=O` | -5.573 | 6.906 | - |
| 42 | `NC(=O)CN1CCCC(c2nccnc2Oc2cccc(F)c2)C1` (centres undefined) | 0.5025 | 12.3 | -7.194 |
| 43 | `[H][C@]12CCN(c3cc(OC)ncn3)[C@@]1([H])C[C@@H](C(=O)NCCOC)O2` | -1.811 | - | 34.93 |
| 44 | `O=C(C1CCOCC1)N1CCc2onc(COc3cccnc3)c2C1.O=C(O)C(F)(F)F` | -0.8538 | - | 14.04 |
| 45 | `COc1ccc(-c2ccnc(C3CCNCC3)c2)cc1` | - | 16.08 | - |
| 46 | `NC(=O)CNC1(c2ccc(Br)cc2)CCOCC1` | 10.85 | 6.266 | -26.21 |
| 47 | `CCN1CCc2[nH]cnc2C12CCN(C(=O)CCc1cccs1)CC2` | -18.01 | 2.011 | -27.92 |
| 48 | `O=c1cc2c(nn1CN1CCN(c3ccc(F)cc3)CC1)CCC2` | -19.03 | 7.184 | -1.761 |
| 49 | `CC(C)(C)c1cc(=O)n2c(n1)SCC(C(=O)NCc1ccccn1)C2` (centres undefined) | -0.2721 | 15.45 | 14.63 |
| 50 | `CC(=O)Nc1ccc2nc(-c3nccn3CCCN(C)C)ccc2c1` | -44.4 | 21.35 | 45.03 |
| 51 | `O=C(CO)N1CCC2(CC1)CC(=O)N(Cc1cc(F)cc(F)c1)C2` | 7.492 | 15.21 | 37.81 |
| 52 | `Cc1cc(C)nc(C2CCCNC2)n1` (centres undefined) | - | 3.797 | - |
| 53 | `CN(C)c1ccccc1C(=O)N1CCCC(c2cccc(C(=O)O)c2)C1` (centres undefined) | -18.58 | 24.15 | 22.63 |

Once more, the final 3:

SMILES,A,B,C
O=C(CO)N1CCC2(CC1)CC(=O)N(Cc1cc(F)cc(F)c1)C2,7.492,15.21,37.81
Cc1cc(C)nc(C2CCCNC2)n1 (centres undefined),-,3.797,-
CN(C)c1ccccc1C(=O)N1CCCC(c2cccc(C(=O)O)c2)C1 (centres undefined),-18.58,24.15,22.63